The target of this series is alpha-synuclein A53T (phospho-S129 positive, in mouse brain tissue) (Homo sapiens) (UniProt P37840). As to the kind of experiment: binding assay. Particulars: Cy3.5 aptamer delivered by TfR-aptamer liposome co-localizes with anti-phospho-S129 alpha-synuclein antibody in mouse brain; protein in cells; protein details: transgenic line M83 mouse (Prnp-SNCA*A53T); single-stranded DNA.

Results from cells or extracts need not show a direct contact.

The record followed here is patent publication US20200325476.

Regarding “ATAGTCCCATCATTCATTGTAAGGAAACGCTACGGGGTGGGTACGGCAAGATATTAGCAAGTGTCA [a-syn-1 (1LBwAAjJ)]”, the binding result is on record as “binds”.
